In patent publication US20250127799A1 (priority 2023, published 2025) one finds conjugation yield and step yield data, which are given here for two substances.

The nature of this data set: general procedure: peptide synthesis; EDC/NHS (activation of the peptide carboxyl group for conjugation). Particulars: for conjugation yield: conjugation step; for step yield: late stage modification step.

For the setting “run 1”, AcCPIKGAIWL showed a conjugation yield of 84% and a step yield of 76%. Also, the step yield (run 2) is given as 82%.
As to AcCPFGFLGIAL, the conjugation yield came out at 38%.
